Measured values: PubChem BioAssay AID282 (DTP/NCI, 2004)
The list shows only some results of the screen, not a fair sample: it is rich in T/C values a quarter to a half above the control, in often repeated tests (any T/C) and in doses without a T/C. Other doses and runs of a compound stand elsewhere. T/C is the treated group as % of the vehicle group. Some doses have a count of surviving animals in place of a T/C: the source files T/C as zero there, which appears to mark a toxic dose or a test without result, not a measured value. Some survivor counts are full or nearly so, which does not show that the dose was tolerated: survival well below the control is almost never listed, so the zero probably covers shortened survival too. Survivors were counted at the toxicity check, usually on the fifth day, unless a day is given; later deaths do not show. Schedules are NCI's codes, read here as Q, the interval in days (D) or hours (H), X, the number of doses. Some entries were tested several times; their values stand side by side, smallest first. Some schedules carry Z or #; the key to these is not given. For survival time, the PubChem record calls one and a half times the control and up active, and a quarter to a half above the control has no call in these data; cut-offs in other NCI protocols can differ. Some T/C values are followed by the survivors on the day toxicity was checked, most often the fifth; where none is given, no animal had died by that day. Marks such as (2×) count equal records among those shown.

System: BDF1 mice, L1210 terephthalanilide-resistant leukemia ip, survival T/C
Assay: NCI In Vivo Anticancer Drug Screen. Data for tumor model L1210 Leukemia resistant to A Terephthalanilide; NSC 38280 (intraperitoneal) in B6D2F1 (BDF1) mice
Settings: T/C endpoint: mean survival time, higher T/C = longer survival
Procedure: The antitumor activity of compounds was measured in mice bearing transplantable tumors. Survival or tumor size were measured and the results are expressed as the measurement made in the treated group (T) divided by the measurement made in the vehicle treated control group (C). The tumor model used in this assay is L1210 Leukemia resistant to A Terephthalanilide; NSC 38280 (intraperitoneal) in B6D2F1 (BDF1) mice

[1] = dose: 5.0 mg/kg/injection, schedule: Q01DX010 (ip), vehicle: saline
[2] = dose: 200.0 mg/kg/injection, schedule: Q01DX010 (ip), vehicle: saline
[3] = dose: 800.0 mg/kg/injection, schedule: Q01DX010 (ip), vehicle: saline
[4] = dose: 1600.0 mg/kg/injection, schedule: Q01DX010 (ip), vehicle: saline
[5] = dose: 100.0 mg/kg/injection, schedule: Q01DX Z (ip), vehicle: carboxymethylcellulose (CMC)
[6] = dose: 125.0 mg/kg/injection, schedule: Q01DX Z (ip), vehicle: carboxymethylcellulose (CMC)
[7] = dose: 250.0 mg/kg/injection, schedule: Q01DX Z (ip), vehicle: carboxymethylcellulose (CMC)
[8] = dose: 12.5 mg/kg/injection, schedule: Q01DX010 (ip), vehicle: saline
[9] = dose: 25.0 mg/kg/injection, schedule: Q01DX010 (ip), vehicle: saline
[10] = dose: 100.0 mg/kg/injection, schedule: Q01DX Z (ip), vehicle: saline
[11] = dose: 50.0 mg/kg/injection, schedule: Q01DX Z (ip), vehicle: carboxymethylcellulose (CMC)
[12] = dose: 500.0 mg/kg/injection, schedule: Q01DX Z (ip), vehicle: carboxymethylcellulose (CMC)

CC[n+]1ccccc1-c1ccc(NC(=O)c2ccc(C(=O)Nc3ccc(-c4ccccn4)cc3)cc2)cc1
T/C [1]: 131 % of control

O=c1cnn(C2OC(CO)C(O)C2O)c(=O)[nH]1 (stereo not drawn)
T/C [2]: 132, 139, 148 % of control
T/C [3]: 134 % of control
survivor count [3]: 0 of 6
T/C [4]: 140 % of control
survivor count [4]: 6 of 6

Cn1c(N)nc2nc[nH]c2c1=S
T/C (dose: 18.75 mg/kg/injection, schedule: Q01DX Z (ip), vehicle: carboxymethylcellulose (CMC)): 130 % of control
T/C (dose: 25.0 mg/kg/injection, schedule: Q01DX Z (ip), vehicle: carboxymethylcellulose (CMC)): 127 % of control
T/C [5]: 128 % of control [5 of 6 alive]
T/C [6]: 138 % of control [4 of 6 alive]
survivor count [7]: 0 of 6

CCCCNc1ncnc2c1cnn2C
survivor count (dose: 125.0 mg/kg/injection, schedule: Q01DX010 (ip), vehicle: saline): 6 of 6
survivor count (dose: 250.0 mg/kg/injection, schedule: Q01DX010 (ip), vehicle: saline): 0 of 6

S=P(N1CC1)(N1CC1)N1CC1
T/C (dose: 3.0 mg/kg/injection, schedule: Q01DX010 (ip), vehicle: saline): 133 % of control

O=NN(CCCl)C(=O)NCCCl
T/C (dose: 6.25 mg/kg/injection, schedule: Q01DX010 (ip), vehicle: saline): 134 % of control
T/C [8]: 144 % of control
survivor count [9]: 6 of 6
survivor count (dose: 50.0 mg/kg/injection, schedule: Q01DX010 (ip), vehicle: saline): 3 of 6 and 6 of 6

O=C(Nc1ccc(C2=NCCCN2)cc1)c1ccc(C(=O)Nc2ccc(C3=NCCCN3)cc2)cc1
T/C (dose: 2.0 mg/kg/injection, schedule: Q01DX010 (ip), vehicle: other): 128 % of control
survivor count (dose: 16.0 mg/kg/injection, schedule: Q01DX010 (ip), vehicle: other): 5 of 6 and 6 of 6

CCCNc1ncnc2[nH]ncc12
T/C (dose: 25.0 mg/kg/injection, schedule: Q01DX Z (ip), vehicle: saline): 128 % of control
survivor count [10]: 3 of 6

CN(C)c1ccc(/C=C/c2ccnc3ccccc23)cc1
survivor count (dose: 200.0 mg/kg/injection, schedule: Q01DX Z (ip), vehicle: saline): 5 of 6

N=[N+]=CC(=O)OCC(N)C(=O)O (stereo not drawn)
T/C (dose: 0.5 mg/kg/injection, schedule: Q01DX Z (ip), vehicle: carboxymethylcellulose (CMC)): 125 % of control
T/C (dose: 0.75 mg/kg/injection, schedule: Q01DX Z (ip), vehicle: carboxymethylcellulose (CMC)): 142 % of control
T/C (dose: 2.5 mg/kg/injection, schedule: Q01DX Z (ip), vehicle: carboxymethylcellulose (CMC)): 139 and 148 % of control
T/C (dose: 3.13 mg/kg/injection, schedule: Q01DX010 (ip), vehicle: saline): 139 [5 of 6 alive] and 144 % of control
T/C [8]: 130 % of control
T/C (dose: 20.0 mg/kg/injection, schedule: Q01DX Z (ip), vehicle: carboxymethylcellulose (CMC)): 136 % of control
survivor count [9]: 6 of 6
survivor count (dose: 40.0 mg/kg/injection, schedule: Q01DX Z (ip), vehicle: carboxymethylcellulose (CMC)): 6 of 6
survivor count [11]: 3 of 6
survivor count (dose: 75.0 mg/kg/injection, schedule: Q01DX Z (ip), vehicle: carboxymethylcellulose (CMC)): 0 of 6
survivor count [5]: 0 of 6
survivor count (dose: 150.0 mg/kg/injection, schedule: Q01DX Z (ip), vehicle: carboxymethylcellulose (CMC)): 0 of 6

NC12CC3CC(CC(C3)C1)C2
survivor count [2]: 1 of 6

NC(=O)N(CCCl)N=O
survivor count (dose: 2.0 mg/kg/injection, schedule: Q01DX010 (ip), vehicle: saline): 6 of 6
survivor count (dose: 4.0 mg/kg/injection, schedule: Q01DX010 (ip), vehicle: saline): 6 of 6
T/C (dose: 4.0 mg/kg/injection, schedule: Q01DX Z (ip), vehicle: saline): 145 % of control
survivor count (dose: 8.0 mg/kg/injection, schedule: Q01DX Z (ip), vehicle: saline): 6 of 6
survivor count (dose: 16.0 mg/kg/injection, schedule: Q01DX Z (ip), vehicle: saline): 6 of 6
survivor count (dose: 32.0 mg/kg/injection, schedule: Q01DX Z (ip), vehicle: saline): 0 of 6
survivor count (dose: 64.0 mg/kg/injection, schedule: Q01DX Z (ip), vehicle: saline): 0 of 6

O=P1(N(CCCl)CCCl)NCCCO1 (stereo not drawn)
T/C (dose: 11.3 mg/kg/injection, schedule: Q01DX010 (ip), vehicle: saline): 104, 113, 117, 129 % of control
T/C (dose: 20.0 mg/kg/injection, schedule: Q01DX Z (ip), vehicle: saline): 138 % of control
T/C (dose: 22.5 mg/kg/injection, schedule: Q01DX010 (ip), vehicle: saline): 130, 134, 138, 156 % of control
T/C (dose: 45.0 mg/kg/injection, schedule: Q01DX010 (ip), vehicle: saline): 158, 175, 177 % of control (2×)
T/C (dose: 90.0 mg/kg/injection, schedule: Q01DX010 (ip), vehicle: saline): 106, 115, 148, 169 % of control
T/C [10]: 143 % of control
T/C (dose: 180.0 mg/kg/injection, schedule: Q01DX010 (ip), vehicle: saline): 92, 97 (2×), 103 % of control [5 of 6 alive]
survivor count (dose: 400.0 mg/kg/injection, schedule: Q01DX Z (ip), vehicle: saline): 1 of 6

N#[N+]c1cnc([O-])[nH]c1=O
T/C (dose: 2.5 mg/kg/injection, schedule: Q01DX010 (ip), vehicle: saline): 125 and 129 % of control
T/C [1]: 127 and 134 % of control
T/C (dose: 10.0 mg/kg/injection, schedule: Q01DX010 (ip), vehicle: saline): 127 and 139 % of control
survivor count (dose: 20.0 mg/kg/injection, schedule: Q01DX010 (ip), vehicle: saline): 0 of 6
survivor count (dose: 40.0 mg/kg/injection, schedule: Q01DX Z (ip), vehicle: saline): 0 of 6
survivor count (dose: 80.0 mg/kg/injection, schedule: Q01DX Z (ip), vehicle: saline): 0 of 6

O=C1C(NC(=O)C2CCCCC2)=C(N2CC2)C(=O)C(NC(=O)C2CCCCC2)=C1N1CC1
T/C (dose: 62.0 mg/kg/injection, schedule: Q01DX Z (ip), vehicle: carboxymethylcellulose (CMC)): 127 % of control
survivor count (dose: 100.0 mg/kg/injection, schedule: Q01DX010 (ip), vehicle: saline): 6 of 6
survivor count [2]: 6 of 6
survivor count [12]: 3 of 6

S=c1nc[nH]c2nc[nH]c12
T/C (dose: 5.0 mg/kg/injection, schedule: Q01DX010 (ip), vehicle: alkali diluted with saline): 96, 98, 108, 120 % of control
T/C (dose: 5.0 mg/kg/injection, schedule: Q01DX Z (ip), vehicle: carboxymethylcellulose (CMC)): 138 % of control
T/C (dose: 10.0 mg/kg/injection, schedule: Q01DX010 (ip), vehicle: alkali diluted with saline): 103, 111, 115, 118 % of control
T/C (dose: 20.0 mg/kg/injection, schedule: Q01DX010 (ip), vehicle: alkali diluted with saline): 114, 115, 125, 126 % of control
T/C (dose: 40.0 mg/kg/injection, schedule: Q01DX010 (ip), vehicle: alkali diluted with saline): 134, 135, 136, 148 % of control
T/C [11]: 140 % of control
T/C (dose: 80.0 mg/kg/injection, schedule: Q01DX010 (ip), vehicle: alkali diluted with saline): 128, 131 [5 of 6 alive], 143, 161 % of control
survivor count [6]: 6 of 6
survivor count [7]: 3 of 6
survivor count [12]: 0 of 6

C=CC(CN1CC1)OC(C)=O (stereo not drawn)
T/C (dose: 8.0 mg/kg/injection, schedule: Q01DX010 (ip), vehicle: saline): 140 % of control

O=C(Nc1ccc(NC(=O)Nc2cccc(C3=NCCN3)c2)cc1)Nc1cccc(C2=NCCN2)c1
T/C (dose: 480.0 mg/kg/injection, schedule: Q01DX Z (ip), vehicle: carboxymethylcellulose (CMC)): 127 % of control
